No constants are given. Whether binding was seen depends on the method and setting. In cells and extracts the contact can be indirect. Some entries that bind do so weakly or less than the wild type. For some assays here: Tags and fused reporters may be left off the sequences shown. One block for each binder: values may come before it.
Columns and labels:
Conditions in all cases: remark: other sources report otherwise
[1] = biological target: T1, YAP (Yes-associated protein), endogenous (human (endogenous in MDA-MB231 and MCF10A)), P46937; assay: co-IP; endogenous proteins of untransfected MDA-MB231 cells, 250 μg protein and 250 ng anti-YAP antibody (sc-101199); western blot
[2] = biological target: T1, YAP (Yes-associated protein), …; assay: proximity ligation; in situ PLA (Duolink In Situ Orange Kit Mouse/Rabbit) on formaldehyde-fixed MDA-MB231 cells or doxycycline-induced ZEB1-overexpressing MCF10A cells; primary antibodies against ZEB1 and YAP/TAZ or TAZ; spots counted per nucleus
[3] = biological target: His-tagged WT YAP, full length, in vitro synthesized, P46937; assay: pull-down; in vitro translated proteins (wheat germ) incubated in pull-down buffer (250 mM sucrose, 10 mM MOPS/KOH pH 7.2, 80 mM KCl, 5 mM MgCl2, 5 mM KH2PO4) 1 h at 37 °C; His-YAP held on Ni-NTA beads, 1 h at 4 °C, ten washes with 40 mM imidazole, elution with 250 mM imidazole; western blot
[4] = biological target: V5-tagged YAP, ectopically expressed, P46937; assay: co-IP; nuclear extracts (20 mM HEPES pH 7.9, 400 mM NaCl, 1 mM EDTA, 1 mM DTT) of MCF7 or 293 cells transiently expressing V5-YAP and HA-ZEB1; IP with anti-HA affinity matrix or anti-V5 beads/antibody, 6 h, 4 °C; western blot

B2: HA-tagged WT ZEB1, full length, in vitro synthesized, P37275 1-1124 (protein)
chain: MADGPRCKRRKQANPRRNNVTNYNTVVETNSDSDDEDKLHIVEEESVTDAADCEGVPEDDLPTDQTVLPGRSSEREGNAKNCWEDDRKEGQEILGPEAQADEAGCTVKDDECESDAENEQNHDPNVEEFLQQQDTAVIFPEAPEEDQRQGTPEASGHDENGTPDAFSQLLTCPYCDRGYKRFTSLKEHIKYRHEKNEDNFSCSLCSYTFAYRTQLERHMTSHKSGRDQRHVTQSGCNRKFKCTECGKAFKYKHHLKEHLRIHSGEKPYECPNCKKRFSHSGSYSSHISSKKCISLIPVNGRPRTGLKTSQCSSPSLSASPGSPTRPQIRQKIENKPLQEQLSVNQIKTEPVDYEFKPIVVASGINCSTPLQNGVFTGGGPLQATSSPQGMVQAVVLPTVGLVSPISINLSDIQNVLKVAVDGNVIRQVLENNQANLASKEQETINASPIQQGGHSVISAISLPLVDQDGTTKIIINYSLEQPSQLQVVPQNLKKENPVATNSCKSEKLPEDLTVKSEKDKSFEGGVNDSTCLLCDDCPGDINALPELKHYDLKQPTQPPPLPAAEAEKPESSVSSATGDGNLSPSQPPLKNLLSLLKAYYALNAQPSAEELSKIADSVNLPLDVVKKWFEKMQAGQISVQSSEPSSPEPGKVNIPAKNNDQPQSANANEPQDSTVNLQSPLKMTNSPVLPVGSTTNGSRSSTPSPSPLNLSSSRNTQGYLYTAEGAQEEPQVEPLDLSLPKQQGELLERSTITSVYQNSVYSVQEEPLNLSCAKKEPQKDSCVTDSEPVVNVIPPSANPINIAIPTVTAQLPTIVAIADQNSVPCLRALAANKQTILIPQVAYTYSTTVSPAVQEPPLKVIQPNGNQDERQDTSSEGVSNVEDQNDSDSTPPKKKMRKTENGMYACDLCDKIFQKSSSLLRHKYEHTGKRPHECGICKKAFKHKHHLIEHMRLHSGEKPYQCDKCGKRFSHSGSYSQHMNHRYSYCKREAEERDSTEQEEAGPEILSNEHVGARASPSQGDSDERESLTREEDEDSEKEEEEEDKEMEELQEEKECEKPQGDEEEEEEEEEVEEEEVEEAENEGEEAKTEGLMKDDRAESQASSLGQKVGESSEQVSEEKTNEA
- binding [3]: binds

B4: HA-tagged ZEB1, doxycycline-induced in MCF10A cells, P37275 1-1124 (protein)
chain: MADGPRCKRRKQANPRRNNVTNYNTVVETNSDSDDEDKLHIVEEESVTDAADCEGVPEDDLPTDQTVLPGRSSEREGNAKNCWEDDRKEGQEILGPEAQADEAGCTVKDDECESDAENEQNHDPNVEEFLQQQDTAVIFPEAPEEDQRQGTPEASGHDENGTPDAFSQLLTCPYCDRGYKRFTSLKEHIKYRHEKNEDNFSCSLCSYTFAYRTQLERHMTSHKSGRDQRHVTQSGCNRKFKCTECGKAFKYKHHLKEHLRIHSGEKPYECPNCKKRFSHSGSYSSHISSKKCISLIPVNGRPRTGLKTSQCSSPSLSASPGSPTRPQIRQKIENKPLQEQLSVNQIKTEPVDYEFKPIVVASGINCSTPLQNGVFTGGGPLQATSSPQGMVQAVVLPTVGLVSPISINLSDIQNVLKVAVDGNVIRQVLENNQANLASKEQETINASPIQQGGHSVISAISLPLVDQDGTTKIIINYSLEQPSQLQVVPQNLKKENPVATNSCKSEKLPEDLTVKSEKDKSFEGGVNDSTCLLCDDCPGDINALPELKHYDLKQPTQPPPLPAAEAEKPESSVSSATGDGNLSPSQPPLKNLLSLLKAYYALNAQPSAEELSKIADSVNLPLDVVKKWFEKMQAGQISVQSSEPSSPEPGKVNIPAKNNDQPQSANANEPQDSTVNLQSPLKMTNSPVLPVGSTTNGSRSSTPSPSPLNLSSSRNTQGYLYTAEGAQEEPQVEPLDLSLPKQQGELLERSTITSVYQNSVYSVQEEPLNLSCAKKEPQKDSCVTDSEPVVNVIPPSANPINIAIPTVTAQLPTIVAIADQNSVPCLRALAANKQTILIPQVAYTYSTTVSPAVQEPPLKVIQPNGNQDERQDTSSEGVSNVEDQNDSDSTPPKKKMRKTENGMYACDLCDKIFQKSSSLLRHKYEHTGKRPHECGICKKAFKHKHHLIEHMRLHSGEKPYQCDKCGKRFSHSGSYSQHMNHRYSYCKREAEERDSTEQEEAGPEILSNEHVGARASPSQGDSDERESLTREEDEDSEKEEEEEDKEMEELQEEKECEKPQGDEEEEEEEEEVEEEEVEEAENEGEEAKTEGLMKDDRAESQASSLGQKVGESSEQVSEEKTNEA
- binding [2]: binds

Second part, the binder after the results:

- binding [1]: binds
- binding [2]: binds
B1: ZEB1 (endogenous), P37275 1-1124 (protein)
chain: MADGPRCKRRKQANPRRNNVTNYNTVVETNSDSDDEDKLHIVEEESVTDAADCEGVPEDDLPTDQTVLPGRSSEREGNAKNCWEDDRKEGQEILGPEAQADEAGCTVKDDECESDAENEQNHDPNVEEFLQQQDTAVIFPEAPEEDQRQGTPEASGHDENGTPDAFSQLLTCPYCDRGYKRFTSLKEHIKYRHEKNEDNFSCSLCSYTFAYRTQLERHMTSHKSGRDQRHVTQSGCNRKFKCTECGKAFKYKHHLKEHLRIHSGEKPYECPNCKKRFSHSGSYSSHISSKKCISLIPVNGRPRTGLKTSQCSSPSLSASPGSPTRPQIRQKIENKPLQEQLSVNQIKTEPVDYEFKPIVVASGINCSTPLQNGVFTGGGPLQATSSPQGMVQAVVLPTVGLVSPISINLSDIQNVLKVAVDGNVIRQVLENNQANLASKEQETINASPIQQGGHSVISAISLPLVDQDGTTKIIINYSLEQPSQLQVVPQNLKKENPVATNSCKSEKLPEDLTVKSEKDKSFEGGVNDSTCLLCDDCPGDINALPELKHYDLKQPTQPPPLPAAEAEKPESSVSSATGDGNLSPSQPPLKNLLSLLKAYYALNAQPSAEELSKIADSVNLPLDVVKKWFEKMQAGQISVQSSEPSSPEPGKVNIPAKNNDQPQSANANEPQDSTVNLQSPLKMTNSPVLPVGSTTNGSRSSTPSPSPLNLSSSRNTQGYLYTAEGAQEEPQVEPLDLSLPKQQGELLERSTITSVYQNSVYSVQEEPLNLSCAKKEPQKDSCVTDSEPVVNVIPPSANPINIAIPTVTAQLPTIVAIADQNSVPCLRALAANKQTILIPQVAYTYSTTVSPAVQEPPLKVIQPNGNQDERQDTSSEGVSNVEDQNDSDSTPPKKKMRKTENGMYACDLCDKIFQKSSSLLRHKYEHTGKRPHECGICKKAFKHKHHLIEHMRLHSGEKPYQCDKCGKRFSHSGSYSQHMNHRYSYCKREAEERDSTEQEEAGPEILSNEHVGARASPSQGDSDERESLTREEDEDSEKEEEEEDKEMEELQEEKECEKPQGDEEEEEEEEEVEEEEVEEAENEGEEAKTEGLMKDDRAESQASSLGQKVGESSEQVSEEKTNEA

- binding [4]: binds
B3: HA-tagged ZEB1, ectopically expressed, P37275 1-1124 (protein)
chain: MADGPRCKRRKQANPRRNNVTNYNTVVETNSDSDDEDKLHIVEEESVTDAADCEGVPEDDLPTDQTVLPGRSSEREGNAKNCWEDDRKEGQEILGPEAQADEAGCTVKDDECESDAENEQNHDPNVEEFLQQQDTAVIFPEAPEEDQRQGTPEASGHDENGTPDAFSQLLTCPYCDRGYKRFTSLKEHIKYRHEKNEDNFSCSLCSYTFAYRTQLERHMTSHKSGRDQRHVTQSGCNRKFKCTECGKAFKYKHHLKEHLRIHSGEKPYECPNCKKRFSHSGSYSSHISSKKCISLIPVNGRPRTGLKTSQCSSPSLSASPGSPTRPQIRQKIENKPLQEQLSVNQIKTEPVDYEFKPIVVASGINCSTPLQNGVFTGGGPLQATSSPQGMVQAVVLPTVGLVSPISINLSDIQNVLKVAVDGNVIRQVLENNQANLASKEQETINASPIQQGGHSVISAISLPLVDQDGTTKIIINYSLEQPSQLQVVPQNLKKENPVATNSCKSEKLPEDLTVKSEKDKSFEGGVNDSTCLLCDDCPGDINALPELKHYDLKQPTQPPPLPAAEAEKPESSVSSATGDGNLSPSQPPLKNLLSLLKAYYALNAQPSAEELSKIADSVNLPLDVVKKWFEKMQAGQISVQSSEPSSPEPGKVNIPAKNNDQPQSANANEPQDSTVNLQSPLKMTNSPVLPVGSTTNGSRSSTPSPSPLNLSSSRNTQGYLYTAEGAQEEPQVEPLDLSLPKQQGELLERSTITSVYQNSVYSVQEEPLNLSCAKKEPQKDSCVTDSEPVVNVIPPSANPINIAIPTVTAQLPTIVAIADQNSVPCLRALAANKQTILIPQVAYTYSTTVSPAVQEPPLKVIQPNGNQDERQDTSSEGVSNVEDQNDSDSTPPKKKMRKTENGMYACDLCDKIFQKSSSLLRHKYEHTGKRPHECGICKKAFKHKHHLIEHMRLHSGEKPYQCDKCGKRFSHSGSYSQHMNHRYSYCKREAEERDSTEQEEAGPEILSNEHVGARASPSQGDSDERESLTREEDEDSEKEEEEEDKEMEELQEEKECEKPQGDEEEEEEEEEVEEEEVEEAENEGEEAKTEGLMKDDRAESQASSLGQKVGESSEQVSEEKTNEA

From paper PMC4756710
